Literature values as cited in patent US7396524B2, “Methods for screening compounds for proarrhythmic risk and antiarrhythmic efficacy” (Main Line Health Heart Center, priority 2005, dated 2008).

Conditions: humans; cited from earlier work

## CCCCc1oc2ccccc2c1C(=O)c1cc(I)c(OCCN(CC)CC)c(I)c1 [amiodarone]
  QT prolongation: significantly prolongs the QT interval
